Results deposited as PubChem BioAssay AID1259254 (NCATS, 2017).
Here is one part, drawn at random, of about 59,000 reagents tested. Over the whole deposit, about 1,550 (2.6%) are marked active. 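G2 share is only a proxy for re-replication; each gene was hit by three separate siRNAs, and active genes were retested.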 The numbers tell different reagents against one gene apart. Further read-outs or replicates are left out here. No sequences are given here. Not stated in the record: the amount of reagent.

Purpose: 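Finding genes that stop cells copying their DNA twice in one cycle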 (primary screen)
Cells: human HCT116 colorectal cancer cells
Reagents: single siRNA against human genes
Timing: 3 days
Read-out: 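Nuclei stained with Hoechst and imaged; cell-cycle phase assigned by DNA content; G2 share scaled per plate, non-targeting siRNA 0%, GMNN siRNA 100%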
Reading the numbers: G2 robust z-score and G2 cells, % of GMNN control: higher = more G2 cells, more excess DNA replication
Active means: 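An siRNA counts as active if its G2 robust z-score lies at least 5 MADs above the screen median; here such calls match roughly 38% of GMNN control or more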

TNRC18P2 (trinucleotide repeat containing 18 pseudogene 2) #1 showed G2 robust z-score -0.787; G2 cells, % of GMNN control -2.57; inactive. After knock-down of TNRC18P2 (trinucleotide repeat containing 18 pseudogene 2) #2, the record shows G2 robust z-score 1.78; G2 cells, % of GMNN control 15.5; inactive. Against TNRC18P2 (trinucleotide repeat containing 18 pseudogene 2) #3 the deposit lists G2 robust z-score -0.0327; G2 cells, % of GMNN control 2.74; inactive. For MROH8 (maestro heat like repeat family member 8) #1 the deposit lists G2 robust z-score 0.0206; G2 cells, % of GMNN control 3.11; inactive. For MROH8 (maestro heat like repeat family member 8) #2, the entry reads G2 robust z-score -0.257; G2 cells, % of GMNN control 1.16; inactive. With knock-down of MROH8 (maestro heat like repeat family member 8) #3, the screen gave G2 robust z-score 5.54; G2 cells, % of GMNN control 41.9; active.

Against BCL9L (BCL9 like) #1, the values are G2 robust z-score 0.167; G2 cells, % of GMNN control 4.14; inactive. With knock-down of BCL9L (BCL9 like) #2 the results were G2 robust z-score -0.531; G2 cells, % of GMNN control -0.767; inactive. Knock-down of BCL9L (BCL9 like) #3 came out at: G2 robust z-score 0.0247; G2 cells, % of GMNN control 3.14; inactive. Knock-down of IGSF23 (immunoglobulin superfamily member 23) #1 came out at: G2 robust z-score 0.486; G2 cells, % of GMNN control 6.39; inactive. After knock-down of IGSF23 (immunoglobulin superfamily member 23) #2, the record shows G2 robust z-score -0.456; G2 cells, % of GMNN control -0.243; inactive. For IGSF23 (immunoglobulin superfamily member 23) #3, the values are G2 robust z-score 1.43; G2 cells, % of GMNN control 13; inactive.

CFAP157 (cilia and flagella associated protein 157) #1 scored G2 robust z-score 0.579; G2 cells, % of GMNN control 7.04; inactive. For CFAP157 (cilia and flagella associated protein 157) #2, the values are G2 robust z-score 0.444; G2 cells, % of GMNN control 6.09; inactive. Against CFAP157 (cilia and flagella associated protein 157) #3, the entry reads G2 robust z-score -0.599; G2 cells, % of GMNN control -1.25; inactive. With knock-down of B4GALNT1 (beta-1,4-N-acetyl-galactosaminyltransferase 1) #1, the screen gave G2 robust z-score -0.124; G2 cells, % of GMNN control 2.1; inactive. B4GALNT1 (beta-1,4-N-acetyl-galactosaminyltransferase 1) #2 scored G2 robust z-score 1.13; G2 cells, % of GMNN control 10.9; inactive. Depletion of B4GALNT1 (beta-1,4-N-acetyl-galactosaminyltransferase 1) #3 gave: G2 robust z-score 3.19; G2 cells, % of GMNN control 25.4; inactive.

With knock-down of ARL10 (ARF like GTPase 10) #1, the record shows G2 robust z-score 1.26; G2 cells, % of GMNN control 11.8; inactive. Silencing of ARL10 (ARF like GTPase 10) #2 resulted in: G2 robust z-score -0.272; G2 cells, % of GMNN control 1.05; inactive. After knock-down of ARL10 (ARF like GTPase 10) #3, the record shows G2 robust z-score -0.305; G2 cells, % of GMNN control 0.822; inactive. With knock-down of CRYZL1 (crystallin zeta like 1) #1, the record shows G2 robust z-score -0.359; G2 cells, % of GMNN control 0.441; inactive. For CRYZL1 (crystallin zeta like 1) #2, the entry reads G2 robust z-score 5.16; G2 cells, % of GMNN control 39.3; active. With knock-down of CRYZL1 (crystallin zeta like 1) #3, the screen gave G2 robust z-score -1; G2 cells, % of GMNN control -4.09; inactive.

Records listed so far whose target name begins with I or i:
IGSF23 (immunoglobulin superfamily member 23) #1 | G2 robust z-score = 0.486; G2 cells, % of GMNN control = 6.39; Call = inactive
IGSF23 (immunoglobulin superfamily member 23) #2 | G2 robust z-score = -0.456; G2 cells, % of GMNN control = -0.243; Call = inactive
IGSF23 (immunoglobulin superfamily member 23) #3 | G2 robust z-score = 1.43; G2 cells, % of GMNN control = 13; Call = inactive
